PubChem BioAssay AID652243, Drosophila RNAi Screening Center, 2013
The deposit covers about 24,000 reagents; shown is an unselected part of those that have a named target and a result. Over the whole deposit, 246 (1%) got an active call. 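Plates not normalised; calls are printed but the firefly/Renilla ratio behind them is not deposited; fold cut for lowering reported inconsistently.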 Raw values vary from plate to plate and are shown uncorrected. The numbers tell different reagents against one gene apart. Not given: the amount of reagent.

Screen: 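Fly regulators of androgen-dependent reporter output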 (primary screen)
Cell system: Drosophila S2R+ cells
Knock-down reagent: long dsRNA against Drosophila genes
Timing: 72 h (48 h, then 24 h hormone)
Conditions: synthetic androgen R1881 at 10 nM for 24 h
Detection: 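Firefly light from an androgen-responsive reporter and Renilla control light per well, raw and unnormalised, for each of two replicates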
Scale: firefly reporter light: higher = more light from androgen-responsive reporter; Renilla control light: higher = more constitutive control signal (cell number, transfection)
Rule for the call: 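Hit when the log firefly-to-Renilla ratio dropped or increased by a fixed fold versus the mean of GFP or LacZ controls across duplicate plates; lowering cut given as 1.5 and as 3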
Calls: active = hit: reporter lowered or raised; inactive = no hit

brv1 scored firefly reporter light, replicate 1 = 1.09e5; firefly reporter light, replicate 2 = 1.54e5; Renilla control light, replicate 1 = 1.69e6; Renilla control light, replicate 2 = 1.82e6; inactive. Srp9 scored firefly reporter light, replicate 1 = 2.73e5; firefly reporter light, replicate 2 = 2.06e5; Renilla control light, replicate 1 = 1.77e6; Renilla control light, replicate 2 = 1.05e6; inactive. For RpS17 #1, the values are firefly reporter light, replicate 1 = 3.97e5; firefly reporter light, replicate 2 = 3.95e5; Renilla control light, replicate 1 = 2.65e6; Renilla control light, replicate 2 = 2.60e6; inactive. After knock-down of RpS17 #2, the record shows firefly reporter light, replicate 1 = 3.35e5; firefly reporter light, replicate 2 = 3.74e5; Renilla control light, replicate 1 = 1.02e6; Renilla control light, replicate 2 = 1.02e6; inactive. Knock-down of otp #1 resulted in: firefly reporter light, replicate 1 = 3.68e5; firefly reporter light, replicate 2 = 4.87e5; Renilla control light, replicate 1 = 9.30e5; Renilla control light, replicate 2 = 9.91e5; inactive. Silencing of otp #2 resulted in: firefly reporter light, replicate 1 = 35144; firefly reporter light, replicate 2 = 55771; Renilla control light, replicate 1 = 3.40e5; Renilla control light, replicate 2 = 3.45e5; inactive.

After knock-down of RpL24 #1, the record shows firefly reporter light, replicate 1 = 1.63e5; firefly reporter light, replicate 2 = 1.32e5; Renilla control light, replicate 1 = 8.00e5; Renilla control light, replicate 2 = 8.07e5; inactive. For RpL24 #2, the entry reads firefly reporter light, replicate 1 = 3.76e5; firefly reporter light, replicate 2 = 3.26e5; Renilla control light, replicate 1 = 7.60e5; Renilla control light, replicate 2 = 6.98e5; inactive. HP6 showed firefly reporter light, replicate 1 = 82727; firefly reporter light, replicate 2 = 1.02e5; Renilla control light, replicate 1 = 7.27e5; Renilla control light, replicate 2 = 8.85e5; inactive. For Bug22, the entry reads firefly reporter light, replicate 1 = 1.82e5; firefly reporter light, replicate 2 = 1.21e5; Renilla control light, replicate 1 = 1.64e6; Renilla control light, replicate 2 = 1.01e6; inactive. With knock-down of CG8916 the results were firefly reporter light, replicate 1 = 5.96e5; firefly reporter light, replicate 2 = 5.95e5; Renilla control light, replicate 1 = 2.73e6; Renilla control light, replicate 2 = 2.27e6; inactive. With knock-down of ZnT35C, the screen gave firefly reporter light, replicate 1 = 1.03e5; firefly reporter light, replicate 2 = 1.10e5; Renilla control light, replicate 1 = 1.32e6; Renilla control light, replicate 2 = 1.32e6; inactive.

For Lrp4, the entry reads firefly reporter light, replicate 1 = 1.02e5; firefly reporter light, replicate 2 = 67070; Renilla control light, replicate 1 = 4.85e5; Renilla control light, replicate 2 = 5.23e5; inactive.

Only “Renilla control light, replicate 2” (2 entries from above):
RpS17 #1 = 2.60e6
RpS17 #2 = 1.02e6

Next entries follow.
chinmo #1 gave firefly reporter light, replicate 1 = 1.20e5; firefly reporter light, replicate 2 = 1.91e5; Renilla control light, replicate 1 = 9.62e5; Renilla control light, replicate 2 = 1.10e6; inactive. Against chinmo #2 the deposit lists firefly reporter light, replicate 1 = 44371; firefly reporter light, replicate 2 = 47399; Renilla control light, replicate 1 = 2.83e5; Renilla control light, replicate 2 = 3.27e5; inactive. chinmo #3 gave firefly reporter light, replicate 1 = 1.58e5; firefly reporter light, replicate 2 = 3.48e5; Renilla control light, replicate 1 = 6.45e5; Renilla control light, replicate 2 = 1.11e6; inactive. After knock-down of chinmo #4 the results were firefly reporter light, replicate 1 = 4.41e5; firefly reporter light, replicate 2 = 8.83e5; Renilla control light, replicate 1 = 8.54e5; Renilla control light, replicate 2 = 1.42e6; inactive. Srrm234 #1 gave firefly reporter light, replicate 1 = 1.31e5; firefly reporter light, replicate 2 = 1.80e5; Renilla control light, replicate 1 = 1.75e5; Renilla control light, replicate 2 = 2.60e5; inactive. Against Srrm234 #2, the entry reads firefly reporter light, replicate 1 = 9.36e5; firefly reporter light, replicate 2 = 5.84e5; Renilla control light, replicate 1 = 1.45e6; Renilla control light, replicate 2 = 1.48e6; inactive.

CG4563 gave firefly reporter light, replicate 1 = 2.72e5; firefly reporter light, replicate 2 = 2.57e5; Renilla control light, replicate 1 = 1.73e6; Renilla control light, replicate 2 = 1.49e6; inactive. Against GILT3 the deposit lists firefly reporter light, replicate 1 = 2.83e5; firefly reporter light, replicate 2 = 2.63e5; Renilla control light, replicate 1 = 2.58e6; Renilla control light, replicate 2 = 2.81e6; inactive. Depletion of CG11294 #1 gave: firefly reporter light, replicate 1 = 53674; firefly reporter light, replicate 2 = 35126; Renilla control light, replicate 1 = 1.87e6; Renilla control light, replicate 2 = 2.08e6; inactive. CG11294 #2 gave firefly reporter light, replicate 1 = 6.09e5; firefly reporter light, replicate 2 = 7.31e5; Renilla control light, replicate 1 = 1.58e6; Renilla control light, replicate 2 = 1.39e6; inactive. With knock-down of Pi3K21B #1, the screen gave firefly reporter light, replicate 1 = 5.07e5; firefly reporter light, replicate 2 = 5.90e5; Renilla control light, replicate 1 = 1.91e6; Renilla control light, replicate 2 = 9.88e5; inactive. After knock-down of Pi3K21B #2, the screen gave inactive.

With knock-down of Pi3K21B #3, the record shows inactive. With knock-down of CG4783, the record shows firefly reporter light, replicate 1 = 5.68e5; firefly reporter light, replicate 2 = 5.03e5; Renilla control light, replicate 1 = 2.27e6; Renilla control light, replicate 2 = 3.13e6; inactive.
